Experimental data reported in publication PMC13389695.
These are yes or no findings as the source states them, for the method shown. Binding seen in cells or lysates may run through a third protein. Some binding calls cover weakened binding; strength is not graded here. For some assays here: Sequences can lack the tags named with a protein.

Sequences of proteins named here, by UniProt entry; tags and fusion partners are left off.
UniProt Q15208: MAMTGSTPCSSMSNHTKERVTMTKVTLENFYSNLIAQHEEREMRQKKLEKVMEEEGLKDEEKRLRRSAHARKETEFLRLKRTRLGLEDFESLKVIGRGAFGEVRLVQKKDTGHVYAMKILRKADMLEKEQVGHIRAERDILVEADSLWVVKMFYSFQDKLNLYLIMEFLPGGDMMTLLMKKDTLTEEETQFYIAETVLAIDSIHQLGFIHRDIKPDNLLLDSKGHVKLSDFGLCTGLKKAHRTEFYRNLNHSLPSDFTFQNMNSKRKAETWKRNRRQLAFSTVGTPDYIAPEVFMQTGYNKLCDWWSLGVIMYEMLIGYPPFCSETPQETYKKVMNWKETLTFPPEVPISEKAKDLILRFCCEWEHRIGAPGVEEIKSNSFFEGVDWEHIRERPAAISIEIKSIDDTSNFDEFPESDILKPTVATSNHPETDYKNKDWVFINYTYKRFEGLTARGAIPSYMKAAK
UniProt O94915: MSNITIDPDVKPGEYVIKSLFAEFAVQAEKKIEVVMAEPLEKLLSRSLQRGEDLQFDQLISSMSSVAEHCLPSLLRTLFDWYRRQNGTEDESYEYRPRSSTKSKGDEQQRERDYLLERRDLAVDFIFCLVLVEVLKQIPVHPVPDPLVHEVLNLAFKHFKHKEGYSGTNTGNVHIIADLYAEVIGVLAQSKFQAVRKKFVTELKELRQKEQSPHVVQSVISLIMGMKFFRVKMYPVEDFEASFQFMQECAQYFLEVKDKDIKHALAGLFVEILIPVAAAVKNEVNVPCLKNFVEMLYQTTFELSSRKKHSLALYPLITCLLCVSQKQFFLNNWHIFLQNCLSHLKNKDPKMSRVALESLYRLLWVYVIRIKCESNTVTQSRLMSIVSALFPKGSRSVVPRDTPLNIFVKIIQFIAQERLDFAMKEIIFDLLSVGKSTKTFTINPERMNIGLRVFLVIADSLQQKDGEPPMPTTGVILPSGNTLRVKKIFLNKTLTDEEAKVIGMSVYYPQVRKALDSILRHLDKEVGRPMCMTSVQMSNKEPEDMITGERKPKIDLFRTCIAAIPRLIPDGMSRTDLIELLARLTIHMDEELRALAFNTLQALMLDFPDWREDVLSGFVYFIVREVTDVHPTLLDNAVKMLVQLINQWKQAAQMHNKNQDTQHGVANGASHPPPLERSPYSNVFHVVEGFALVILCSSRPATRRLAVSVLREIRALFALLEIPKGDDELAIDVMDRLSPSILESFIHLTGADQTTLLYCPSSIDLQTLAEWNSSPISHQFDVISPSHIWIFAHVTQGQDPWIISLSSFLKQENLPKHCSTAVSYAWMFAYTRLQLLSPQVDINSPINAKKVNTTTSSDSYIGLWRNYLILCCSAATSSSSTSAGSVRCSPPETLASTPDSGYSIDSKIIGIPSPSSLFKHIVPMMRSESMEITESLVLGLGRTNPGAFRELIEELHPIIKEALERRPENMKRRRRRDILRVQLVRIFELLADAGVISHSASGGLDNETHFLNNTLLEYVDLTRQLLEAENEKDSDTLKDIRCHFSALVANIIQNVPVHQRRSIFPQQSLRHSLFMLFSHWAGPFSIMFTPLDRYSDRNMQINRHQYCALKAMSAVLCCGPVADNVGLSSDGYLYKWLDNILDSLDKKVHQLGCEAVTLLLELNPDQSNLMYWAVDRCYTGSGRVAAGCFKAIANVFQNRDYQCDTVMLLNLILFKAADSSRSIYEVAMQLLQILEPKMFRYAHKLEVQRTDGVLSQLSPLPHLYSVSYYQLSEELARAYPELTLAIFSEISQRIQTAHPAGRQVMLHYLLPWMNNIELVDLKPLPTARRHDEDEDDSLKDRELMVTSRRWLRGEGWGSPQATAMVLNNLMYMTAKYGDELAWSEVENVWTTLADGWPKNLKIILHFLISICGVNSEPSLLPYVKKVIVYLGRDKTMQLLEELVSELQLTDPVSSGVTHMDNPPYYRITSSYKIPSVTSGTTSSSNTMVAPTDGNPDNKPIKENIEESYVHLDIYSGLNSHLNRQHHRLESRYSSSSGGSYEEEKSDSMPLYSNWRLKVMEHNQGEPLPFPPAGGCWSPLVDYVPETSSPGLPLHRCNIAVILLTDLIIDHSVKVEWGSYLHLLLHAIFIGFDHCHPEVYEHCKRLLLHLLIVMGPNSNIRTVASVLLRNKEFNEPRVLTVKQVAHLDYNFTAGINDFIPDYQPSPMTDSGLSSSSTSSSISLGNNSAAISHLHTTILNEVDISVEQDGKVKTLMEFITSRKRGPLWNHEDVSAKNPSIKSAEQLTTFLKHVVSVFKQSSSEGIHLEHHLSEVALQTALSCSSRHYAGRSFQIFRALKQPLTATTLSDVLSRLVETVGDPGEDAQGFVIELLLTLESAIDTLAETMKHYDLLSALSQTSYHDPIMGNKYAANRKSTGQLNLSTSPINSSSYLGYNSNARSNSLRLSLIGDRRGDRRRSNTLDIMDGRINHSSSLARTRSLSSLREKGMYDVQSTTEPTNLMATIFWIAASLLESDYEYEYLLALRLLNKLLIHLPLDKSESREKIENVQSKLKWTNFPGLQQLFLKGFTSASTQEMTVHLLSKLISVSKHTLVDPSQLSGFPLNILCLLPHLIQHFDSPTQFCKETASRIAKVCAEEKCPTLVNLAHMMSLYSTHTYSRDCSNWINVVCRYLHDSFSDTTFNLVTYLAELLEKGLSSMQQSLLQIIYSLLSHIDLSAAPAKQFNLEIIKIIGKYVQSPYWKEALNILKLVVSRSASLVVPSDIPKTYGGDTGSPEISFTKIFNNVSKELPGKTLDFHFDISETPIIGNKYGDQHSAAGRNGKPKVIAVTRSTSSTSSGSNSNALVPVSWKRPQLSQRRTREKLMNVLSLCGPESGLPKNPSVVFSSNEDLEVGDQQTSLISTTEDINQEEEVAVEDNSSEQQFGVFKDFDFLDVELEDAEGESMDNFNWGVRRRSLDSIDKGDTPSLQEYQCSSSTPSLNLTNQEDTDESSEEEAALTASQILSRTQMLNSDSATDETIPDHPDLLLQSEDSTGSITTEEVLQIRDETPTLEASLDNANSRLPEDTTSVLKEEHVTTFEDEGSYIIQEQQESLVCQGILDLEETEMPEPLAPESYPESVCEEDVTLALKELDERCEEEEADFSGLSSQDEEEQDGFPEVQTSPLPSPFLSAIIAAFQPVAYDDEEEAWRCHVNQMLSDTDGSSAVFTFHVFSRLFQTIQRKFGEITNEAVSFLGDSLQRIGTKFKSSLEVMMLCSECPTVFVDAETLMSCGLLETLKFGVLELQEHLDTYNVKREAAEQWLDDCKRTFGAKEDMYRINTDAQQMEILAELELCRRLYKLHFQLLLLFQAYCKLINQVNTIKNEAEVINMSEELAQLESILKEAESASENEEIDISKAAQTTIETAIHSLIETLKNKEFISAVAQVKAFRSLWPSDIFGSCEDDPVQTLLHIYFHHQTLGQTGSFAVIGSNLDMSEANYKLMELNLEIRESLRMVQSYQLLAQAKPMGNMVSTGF

B1: MOB1a (protein, UniProt Q9H8S9 1-216)
chain: MSFLFSSRSSKTFKPKKNIPEGSHQYELLKHAEATLGSGNLRQAVMLPEGEDLNEWIAVNTVDFFNQINMLYGTITEFCTEASCPVMSAGPRYEYHWADGTNIKKPIKCSAPKYIDYLMTWVQDQLDDETLFPSKIGVPFPKNFMSVAKTILKRLFRVYAHIYHQHFDSVMQLQEEAHLNTSFKHFIFFVQEFNLIDRRELAPLQELIEKLGSKDR
B2: Homer1 (293 T cell lysate, IP of GFP-FRYL) (protein, UniProt Q86YM7 1-354)
chain: MGEQPIFSTRAHVFQIDPNTKKNWVPTSKHAVTVSYFYDSTRNVYRIISLDGSKAIINSTITPNMTFTKTSQKFGQWADSRANTVYGLGFSSEHHLSKFAEKFQEFKEAARLAKEKSQEKMELTSTPSQESAGGDLQSPLTPESINGTDDERTPDVTQNSEPRAEPTQNALPFSHSSAISKHWEAELATLKGNNAKLTAALLESTANVKQWKQQLAAYQEEAERLHKRVTELECVSSQANAVHTHKTELNQTIQELEETLKLKEEEIERLKQEIDNARELQEQRDSLTQKLQEVEIRNKDLEGQLSDLEQRLEKSQNEQEAFRNNLKTLLEILDGKIFELTELRDNLAKLLECS
B3: Homer2 (293 T cell lysate, IP of GFP-FRYL) (protein, UniProt Q9NSB8 1-354)
chain: MGEQPIFTTRAHVFQIDPNTKKNWMPASKQAVTVSYFYDVTRNSYRIISVDGAKVIINSTITPNMTFTKTSQKFGQWADSRANTVFGLGFSSEQQLTKFAEKFQEVKEAAKIAKDKTQEKIETSSNHSQESGRETPSSTQASSVNGTDDEKASHAGPANTHLKSENDKLKIALTQSAANVKKWEIELQTLRESNARLTTALQESAASVEQWKRQFSICRDENDRLRNKIDELEEQCSEINREKEKNTQLKRRIEELEAELREKETELKDLRKQSEIIPQLMSECEYVSEKLEAAERDNQNLEDKVRSLKTDIEESKYRQRHLKVELKSFLEVLDGKIDDLHDFRRGLSKLGTDN
B4: Homer3 (293 T cell lysate, IP of GFP-FRYL) (protein, UniProt Q9NSC5 1-361)
chain: MSTAREQPIFSTRAHVFQIDPATKRNWIPAGKHALTVSYFYDATRNVYRIISIGGAKAIINSTVTPNMTFTKTSQKFGQWADSRANTVYGLGFASEQHLTQFAEKFQEVKEAARLAREKSQDGGELTSPALGLASHQVPPSPLVSANGPGEEKLFRSQSADAPGPTERERLKKMLSEGSVGEVQWEAEFFALQDSNNKLAGALREANAAAAQWRQQLEAQRAEAERLRQRVAELEAQAASEVTPTGEKEGLGQGQSLEQLEALVQTKDQEIQTLKSQTGGPREALEAAEREETQQKVQDLETRNAELEHQLRAMERSLEEARAERERARAEVGRAAQLLDVSLFELSELREGLARLAEAAP

Key:
GFP-NDR1 = GFP-NDR1 (UniProt Q15208); assay: co-IP; GFP-NDR1 in 293 T cells (SI Appendix Fig. S6C)
WT GFP-FRYL = WT GFP-FRYL (UniProt O94915); assay: co-IP; IP of WT GFP-FRYL and the FRYL HBMs M1 and M2 from 293 T cell lysates

Molecule	binding (GFP-NDR1)	binding (WT GFP-FRYL)
FRYL (in 293 T cells, co-IP with GFP-NDR1) (from UniProt O94915 1-3013)	binds	
B1	binds	
B2		binds
B3		binds
B4		binds
